# From PubChem BioAssay AID493014 (National Center for Advancing Translational Sciences (NCATS), 2011)
# “And” between values parts separate entries of the source, which are not always exact repeats. Identical values can stand only once. Hit rate of the full screen: of about 340,000 compounds, about 170 (0.05%) were called active. Inconclusive means that the source gave no clear call. Such entries were picked first, then a sample of the others. Calls come from the whole dose curve; as a rule, active = well fitted inhibition curve with a large enough effect in the signal ratio, with a control signal flat (not every such curve was filed as active); inconclusive = small, poorly fitted or top-dose-only effect, or effect the other way, or a change in a side signal; inactive = flat fitted curve, though single readings scatter; the % refers to the signal ratio. Where the call is inconclusive, the potency comes from a doubtful curve fit.
# Experiment: qHTS Assay to Find Inhibitors of Chronic Active B-Cell Receptor Signaling;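 for activity change, negative = inhibition: plate controls were basal doxycycline-induced cells for no effect and cells given 10 µM MG132 for full effect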
# Conditions: ABC-DLBCL IkBa-CBG/CBR reporter, luminescence ratio (green luciferase fused to IkBa over red control in TMD8 lymphoma cells), 4 h; activity change, negative = inhibition: at 46.1 µM (top of the series)
# Summary of the method: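 TMD8 human ABC-DLBCL cells with doxycycline-inducible IκBα–green luciferase fusion and unfused red luciferase, in 0.5% FBS medium; compounds up to 46 uM, 4 h at 37C. Green/red luminescence ratio, filter-overlap corrected, fitted to concentration-response curves.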
# Potency is the fitted concentration of half-maximal effect.
Compound,"activity change, negative = inhibition",Potency
CC1CN(S(=O)(=O)c2cccc(C(=O)OCC(=O)c3cccs3)c2)CC(C)O1 (stereo not given),inconclusive: 3.62%,
Oc1cccc(/C=C/c2ccc3cccc(O)c3n2)c1,,"inconclusive: 25.1 µM [cytotoxic, partial curve]"
COc1ccc(CC(=O)Nc2cc(S(=O)(=O)N3CCOCC3)ccc2N2CCOCC2)cc1,inconclusive: -5.61%,
CC1=CC(C)(C)Nc2ccc(OC(=O)CN3C(=O)CCC3=O)cc21,,"inconclusive: 16.4 µM [falling, partial curve]"
N=C1C(c2ccccc2)=C(O)C2CCc3ccccc3N12 (stereo not given),inconclusive: 10%,
CCOC(=O)c1c(C)n(C)c2cc(Br)c(O)c(O)c12,,"inconclusive: 25.1 µM [falling, single point]"
CCc1ccc(NC(=O)c2[nH]c(C)c(C(C)=O)c2C)cc1,inactive,
O=C(NCCc1ccccc1)c1nccc2ccccc12,,"inconclusive: 23.1 µM [falling, single point]"
Cc1ccc(S(=O)(=O)N(CC(=O)NCc2ccccn2)c2ccc(Cl)cc2)cc1,inconclusive: -8.01%,
C/C(CCc1ccc2c(c1)OCO2)=N\NC(=O)c1ccc(C)cc1C,inconclusive: -21%,
COc1cccc(NC(=O)CCc2nc(-c3cccs3)no2)c1,,"inconclusive: 17.8 µM [rising, single point]"
CC(C)(C)c1cc(-c2csc(Nc3ccccc3)[n+]2Cc2ccc(C(=O)O)cc2)cc(C(C)(C)C)c1O,inconclusive: 1.39%,
COc1ccc(CCNC(=O)CSc2nnc(Cc3cccn3C)n2C)cc1OC,inconclusive: 15.1%,
Cn1cc([N+](=O)[O-])c(C(=O)N2CCN(Cc3ccc4c(c3)OCO4)CC2)n1,inactive,
CCc1nc(SCC(=O)NCCc2ccc(OC)c(OC)c2)c2c(=O)n(C)c(=O)n(C)c2n1,inconclusive: 4.21%,
Cc1ccc(NC(=O)COC(=O)Cc2c[nH]c3ccccc23)cc1C,,"inconclusive: 14.6 µM [falling, partial curve, poor fit]"
COc1cc(C(=O)N/N=C/c2ccc(OC(=O)c3ccccc3Cl)c(OC)c2)ccc1O,,"inconclusive: 25.1 µM [falling, single point]"
CN(C)C(=O)c1nnsc1Sc1ccc(Cl)cc1,inconclusive: 6.26%,
Cc1ccc2nc(-c3ccccc3)cc(C(=O)N3CCN(c4ccccc4O)CC3)c2c1,inactive,
COc1ccc(N(CC(=O)NCCSc2ccccc2)S(=O)(=O)c2ccccc2)c(OC)c1,inactive,
Cc1ccc(CSCc2ccc(C(=O)NCCCN3CCOCC3)o2)cc1,inactive,
O=C(c1ccc2c(c1)OCO2)N1CCN=C1SCc1ccccc1,inconclusive: 3.52%,
CCOC(=O)C1C(=O)C=C(c2cccc(NS(C)(=O)=O)c2)CC1c1ccco1 (stereo not given),,"inconclusive: 8.2 µM [falling, partial curve, poor fit]"
CCN1CCN(CCCNC(=O)CCC(=O)N2CCOc3ccc(Cl)cc32)CC1,inactive,
N#CC1=C(c2ccc(-c3ccccc3)cc2)COC1=O,inactive,

Compound,"activity change, negative = inhibition",Potency
COc1ccc(CCNC(=S)Nc2ccc(S(=O)(=O)Nc3ncccn3)cc2)cc1OC,inactive,
COc1cc(C(=O)NC(=S)Nc2ccc(Cc3ccncc3)cc2)cc(OC)c1OC,inconclusive: -6.37%,
Cc1ccc(C)n1-c1ccc(C(=O)Nc2ccccc2)cc1,inconclusive: -14.5%,
CCN(c1cccc(C)c1)S(=O)(=O)c1c(C)[nH]c(=O)[nH]c1=O,,"inconclusive: 0.651 µM [rising, full curve, poor fit]"
Cc1ccc(C)c(NC(=O)c2cc(-c3ccccc3)nn2-c2ccccc2)c1,inactive,
O=C(C1CCCN(S(=O)(=O)c2ccccc2)C1)N1CCCCCC1 (stereo not given),inactive,
Cc1ccc(-n2c(C)nn(-c3ncc(C(F)(F)F)cc3Cl)c2=O)cc1,inconclusive: 8.44%,
CC1CCN(S(=O)(=O)c2ccc(NC(=O)CN3CCCCCC3)cc2)CC1,inactive,
CCC1CCCCN1C(=O)Cn1nc([N+](=O)[O-])c(Cl)c1C (stereo not given),inconclusive: 0.624%,
COc1ccccc1NC(=S)N(Cc1ccccc1)Cc1ccccn1,inactive,
COc1ccc(NC(=O)C2=Cc3ccccc3OC2)cc1,,"inconclusive: 25.1 µM [falling, partial curve]"
Cc1ccc(C)c2[nH]c(=O)c(CN(Cc3cccnc3)C(=S)NCc3ccco3)cc12,inconclusive: -0.441%,
CCC(NC(=O)c1ccccc1NC(=O)c1ccccc1)C(=O)NNC(=O)CSc1nc2ccccc2o1 (stereo not given),inconclusive: -7.55%,
CN1CCN(c2ccc(S(=O)(=O)N3CCCCC3)cc2NC(=O)/C=C/c2ccc(Cl)c([N+](=O)[O-])c2)CC1,inconclusive: 0.466%,
O=C1Nc2ccccc2N(O)N1c1ccc(Cl)c(Cl)c1,,"inconclusive: 22.4 µM [falling, partial curve, poor fit]"
Cc1cc(NC(=O)c2ccc(Cl)cc2Cl)no1,inconclusive: 8.11%,
Cc1cccc(N2CCN(c3ccc(NC(=O)c4ccccc4)cc3C(=O)O)CC2C)c1 (stereo not given),inconclusive: -6.92%,
COc1ccc(-c2noc(CSc3nc(N)cc(=O)[nH]3)n2)cc1,,"inconclusive: 12.6 µM [falling, single point] and inconclusive: 25.1 µM [falling, single point]"
CN(Cc1nc(-c2ccncc2)no1)S(=O)(=O)c1ccccc1,inconclusive: 5.83%,
COc1ccc(/C(N)=N/OC(=O)C2CCC(=O)N2S(=O)(=O)c2ccc(C)cc2)cc1OC (stereo not given),inconclusive: -3.88%,
Cc1[nH]c2ccccc2c1C(=O)C(=O)Nc1ccc2c(c1)OCO2,inconclusive: 4.95%,
CC/C(=C/c1sc2ccccc2[n+]1CC)SC,inactive,
N#Cc1ccc(NC(=O)N2CCC(c3nc4c(nnn4Cc4cccc(Cl)c4)c(=O)[nH]3)CC2)cc1,inconclusive: -2.45%,
COc1ccccc1/C=C1\SC(=O)N(CCC(=O)NCCCn2ccnc2)C1=O,,"inconclusive: 22.4 µM [falling, single point]"
CCCc1cc(=O)[nH]c(SCC(=O)Nc2cc(S(=O)(=O)N3CCOCC3)ccc2N(CC)CC)n1,inconclusive: 5.11%,
